According to PubChem BioAssay AID2685 (National Center for Advancing Translational Sciences (NCATS), 2010):
The list shows a part of the results. Further columns of the screen follow, without active or inactive calls. The list favours compounds with an active or inconclusive main result. The note in brackets gives the kind of curve behind each potency; many fits are weak.

Experiment: qHTS Assay for Lipid Storage Modulators in Drosophila S3 Cells;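 on cell number change: cells counted by Cell Tracker Red CMTPX staining in the red channel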
Conditions: BODIPY lipid droplet fluorescence, 18-24 h; for cell number change: measured here: cell count max response, cells fed with added oleic acid
How it was run: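 Drosophila S3 cells got compounds at several concentrations plus oleic acid (400 uM solution). Laser-scanning cytometry with 488 nm excitation read lipid droplets at 500-530 nm and cells at 575-640 nm. Percent activity was relative to 20 uM Triacsin C.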

[1] = measured here: lipid fluorescence (Fed channel) AC50, cells fed with added oleic acid
[2] = measured here: cell number channel AC50, cells fed with added oleic acid

Structure (SMILES) | cell number change [%] | AC50 [1] | AC50 [2]
CCC(C)NC(=O)CN(c1cc(C)ccc1OC)S(C)(=O)=O (stereo not given) | -3.36 | 0.461 µM [falling, single point] | 
CCCCCCNCc1c(F)cccc1Cl | -3.14 |  | 
CC1=C(C(=O)Nc2cc(C(=O)N(C)Cc3ccccc3)ccc2C)SCCO1 | -15.9 | 29.1 µM [falling, single point] | 0.103 µM [falling, partial curve, poor fit]
CNC(=O)NC(=O)CSc1ccc(S(=O)(=O)N(C)C2CCCCC2)cn1 | -5.77 | 29.1 µM [rising, single point] | 1.03 µM [falling, full curve]
CCOC(=O)NC(=S)Nc1cccc(NC(=S)NC(=O)OCC)c1 | 17.1 | 0.00461 µM [rising, full curve, poor fit] | 
CCOc1ccc(C(CC(=O)O)NS(=O)(=O)c2ccc(C)cc2)cc1OC (stereo not given) | 7.27 | 0.058 µM [falling, full curve, poor fit] | 
O=C(c1ccc(Cl)cc1)C1CCN(C(=O)c2ccc(F)cc2)CC1 | -29.1 |  | 
COc1ccc(C/C(N)=N/OC(=O)COc2ccccc2C)cc1 | 28.7 | 18.4 µM [rising, partial curve] | 
CCC(=O)Nc1nnc(SCC(=O)NCCc2ccc(OC)c(OC)c2)s1 | 48.3 | 14.6 µM [rising, partial curve] | 18.4 µM [rising, single point]
Cc1cccc(-n2cnc3c(c2=O)c2nc4ccccc4nc2n3Cc2ccco2)c1 | 0.714 | 0.92 µM [rising, partial curve] | 
COC(=O)c1c(C)[nH]c(C(=O)/C=C/c2ccc(Cl)cc2)c1C | -60 | 20.6 µM [falling, single point] | 20.6 µM [falling, partial curve]
COc1ccc(OCCCC(=O)OC(C)C(=O)Nc2ccc(C)cc2)cc1 (stereo not given) | -21.6 | 14.6 µM [falling, partial curve] | 
CN(C)S(=O)(=O)c1ccc(N2CCCC2)c(C(=O)NNC(=O)COc2cccc(F)c2)c1 | 38.1 | 32.6 µM [rising, partial curve, poor fit] | 23.1 µM [rising, single point]
COc1ccc(OC)c(NC(=O)c2cccc(S(=O)(=O)N(Cc3ccccc3)c3ccccc3OC)c2)c1 | -0.317 | 0.58 µM [rising, full curve] | 
O=C(Nc1ccc(N2CCN(C(=O)c3ccccc3)CC2)cc1)c1cc2ccccc2o1 | -19.3 |  | 
Cc1ccc(S(=O)(=O)O/N=C2\CCCc3ccccc32)cc1 | -53.4 |  | 23.1 µM [falling, partial curve, poor fit]
Cc1c2cn[nH]c(=O)c2c(C)n1Cc1ccc(F)cc1 | 47.8 |  | 18.4 µM [rising, single point]
CC1(C)CC(=O)N(c2ccccc2)C1(C)O (stereo not given) |  | 8.2 µM [falling, partial curve] | 
CN1CCN(CC#CC2(O)CCCCC2)CC1 | 5.89 |  | 
Cc1ccc(C(=O)NCc2cccc(C(F)(F)F)c2)cc1S(=O)(=O)N1CCCCC1 | 24.7 | 9.2 µM [rising, partial curve] | 
O=C(NNC(=S)NC1CC2CCC1C2)c1ccc(Cl)cc1 (stereo not given) | -8.81 | 0.146 µM [rising, full curve, poor fit] | 

As a short view, some entries already given.
Structure (SMILES) | cell number change [%] | AC50 [1] | AC50 [2]
CNC(=O)NC(=O)CSc1ccc(S(=O)(=O)N(C)C2CCCCC2)cn1 | -5.77 | 29.1 µM [rising, single point] | 1.03 µM [falling, full curve]
CCOC(=O)NC(=S)Nc1cccc(NC(=S)NC(=O)OCC)c1 | 17.1 | 0.00461 µM [rising, full curve, poor fit] | 

The results go on.

Structure (SMILES) | cell number change [%] | AC50 [1] | AC50 [2]
O=C(CSc1cn[nH]n1)Nc1cccc(C(=O)O)c1 | 15.2 |  | 
COc1ccc(/C=C(\NC(=O)c2ccc(OC)cc2)C(=O)NC(CCSC)C(=O)O)cc1 (stereo not given) | -18.4 | 6.51 µM [falling, single point] | 2.59 µM [falling, single point]
C=C(C)C1CC=C(C)/C(=N/NC(=O)COc2ccc(Cl)cc2)C1 (stereo not given) | 10.3 | 0.291 µM [rising, full curve] | 
COC(=O)c1c(=O)n(O)c2ccc(OC)cc2[n+]1[O-] | 10.6 | 16.4 µM [falling, partial curve, poor fit] | 
CC1CCCCN1C(=O)c1cccc(NC(=O)c2ccccc2)c1 (stereo not given) | 8.4 | 1.16 µM [falling, full curve] | 1.03 µM [falling, full curve]
CCOC(=O)c1c(C)[nH]c(C)c1C(=O)COC(=O)c1ccc(Cl)c(S(N)(=O)=O)c1 | 36.2 | 1.64 µM [rising, partial curve, poor fit] | 0.164 µM [rising, full curve]
N#CC1(Nc2ccccc2)C(=O)Nc2ccccc21 (stereo not given) | 28.1 |  | 
CCC1(CC)NC(=O)N(CC(=O)NC(=O)NCc2ccccc2)C1=O | -3.17 | 1.84 µM [falling, partial curve] | 
CCn1cc(C(=O)NCC(OC)OC)c(=O)c2cc(S(=O)(=O)N(C)C3CCCCC3)ccc21 | -13 | 29.1 µM [rising, single point] | 
Cc1onc(-c2c(Cl)cccc2Cl)c1C(=O)NCCN1CCOCC1 | -8.2 | 29.1 µM [falling, single point] | 
CC(C)C(=O)Nc1cccc(C(=O)Nc2nncs2)c1 | 17.1 | 1.16 µM [falling, full curve, poor fit] | 
Cc1nc(N)sc1Cc1ccc2c(c1)OCO2 | -15.3 |  | 
O=C(Nc1cccc(Cl)c1N1CCOCC1)c1ccc(Br)o1 | -6.27 | 9.2 µM [falling, partial curve] | 
O=C(c1ccc(C#Cc2ccccc2)o1)N1CCN(c2ccccn2)CC1 | -8.79 |  | 
CCOC1=C/C(=C/c2c(N)n3nc(-c4ccccc4)sc3nc2=O)C=CC1=O | -20.1 |  | 
COc1ccc2cc1Oc1ccc(cc1)C[C@H]1c3cc(c(OC)cc3CCN1C)Oc1c(OC)c(OC)cc3c1[C@@H](C2)N(C)CC3 | 19.2 | 16.4 µM [rising, partial curve, poor fit] | 
CCOc1ccc(NC(=O)c2cc(=O)[nH]c3ccccc23)cc1 | -20.1 |  | 
CCOc1ccc(NC(=O)CC(NC(C)=O)c2ccccc2)cc1S(=O)(=O)N1CCCC1 (stereo not given) | -7.89 |  | 6.51 µM [falling, single point]
O=C(Nc1ccc(F)cc1)c1ccc(=O)[nH]n1 | -32.8 |  | 0.116 µM [falling, full curve, poor fit]
Cc1ccc(CNS(=O)(=O)c2ccc(Br)s2)cc1 | -8.11 | 2.31 µM [rising, partial curve, poor fit] | 
COc1cc(CC(=O)OCC(=O)N2CCCCC2C)cc(OC)c1OC (stereo not given) | 10.8 | 6.51 µM [rising, single point] | 

Fetched one by one from the entries so far, two records:
Structure (SMILES) | cell number change [%] | AC50 [1] | AC50 [2]
CN1CCN(CC#CC2(O)CCCCC2)CC1 | 5.89 |  | 
O=C(c1ccc(C#Cc2ccccc2)o1)N1CCN(c2ccccn2)CC1 | -8.79 |  | 

The list goes on.

Structure (SMILES) | cell number change [%] | AC50 [1] | AC50 [2]
COc1ccccc1N1CCN(CC(=O)Nc2ccc(S(=O)(=O)N3CCCCCC3)cc2)CC1 | -11.7 | 29.1 µM [falling, single point] | 
Nc1ccc(S(=O)(=O)NC(Cc2ccccc2)C(=O)O)cc1 (stereo not given) | -3.87 | 6.51 µM [rising, single point] | 
CCN(C(=O)CSc1nnc(-c2ccc(Cl)cc2)n1C)C1CCS(=O)(=O)C1 (stereo not given) | -22.5 | 0.92 µM [falling, full curve, poor fit] | 0.461 µM [falling, single point]
CCn1cc(C(=O)NCCc2ccc(Cl)cc2)c(=O)c2cc(S(=O)(=O)N(C)C)ccc21 | -15.3 | 0.116 µM [falling, full curve, poor fit] | 
CC1=Nn2c(nnc2-c2n[nH]c3c2CCC3)SC1 | -3.97 | 3.26 µM [rising, partial curve] | 2.06 µM [rising, partial curve]
Cc1cccc(C(=O)N[C@H](C(=O)NCCc2ccc(S(N)(=O)=O)cc2)C(C)C)c1 | 15.4 |  | 
CC(=O)N1CCc2c(sc3c2c(=O)n(-c2ccccc2)c(=O)n3Cc2ccccc2Cl)C1 | 18.1 | 6.51 µM [rising, single point] | 
O=C(Cc1cccs1)NNC(=O)c1ccccc1Cl | -27.6 | 4.11 µM [rising, single point] | 
Cn1c(CNC(=O)c2ccc3c(c2)OCO3)nnc1SCC(=O)Nc1ccc(F)cc1F | -3.97 |  | 
COc1ccc(NS(=O)(=O)c2cc(-c3nnnn3C)ccc2OC)cc1 |  |  | 0.0206 µM [falling, full curve, poor fit]
O=C(COc1ccc(S(=O)(=O)N2CCCC2)cc1)NCc1cccnc1 | -11.8 |  | 
CC(/C=N/NC(=O)CSc1nc2ccccc2n1C)=C\c1ccco1 |  |  | 1.03 µM [rising, partial curve]
CCN(c1cccc(C)c1)S(=O)(=O)c1ccc2c(c1)CCCN2C(C)=O | 6.85 |  | 
COCCCNC(=O)c1ccc(Cn2c(=O)c3ccccc3n(Cc3ccc(C)cc3)c2=O)cc1 |  | 0.58 µM [rising, single point] | 
c1ccc2oc(SCc3cn4ccsc4n3)nc2c1 | -6.83 |  | 
CCN1C(=O)[C@@H]2[C@@H](c3ccc(SC4CCCCC4)cc3)N3CCCC[C@@]3(C(=O)OC)[C@@H]2C1=O | -0.528 |  | 4.11 µM [falling, single point]
CCNC(=S)N1CCN(CCNC2=CC(=O)CC(C)(C)C2)CC1 | -48.3 | 23.1 µM [falling, single point] | 5.8 µM [falling, full curve]
COc1cccc(NC(=S)N2CCC(c3ccc(C)cc3)C2)c1 (stereo not given) | 23 | 0.731 µM [falling, full curve] | 
Cc1ccc(C)c(N2CCN(C(=S)NC3CCCCC3)CC2)c1 |  |  | 0.082 µM [rising, full curve, poor fit]
Cc1ccc(NC(=O)CN2CCN(S(=O)(=O)c3ccc(F)cc3)CC2)cc1C | 4.38 | 0.92 µM [rising, full curve, poor fit] | 
